Sequences of proteins named here, by UniProt entry; tags and fusion partners are left off. Residues count along the entry.
UniProt P71451, 35-297: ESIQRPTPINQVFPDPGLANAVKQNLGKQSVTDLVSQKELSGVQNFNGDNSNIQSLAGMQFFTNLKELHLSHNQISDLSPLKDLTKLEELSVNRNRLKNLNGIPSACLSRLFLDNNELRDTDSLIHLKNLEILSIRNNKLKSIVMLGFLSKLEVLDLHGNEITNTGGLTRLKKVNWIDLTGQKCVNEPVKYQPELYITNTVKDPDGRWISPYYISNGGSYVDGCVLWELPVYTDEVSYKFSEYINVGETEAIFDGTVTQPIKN

According to doi:10.1101/2024.04.10.588880:

Target: GST fusion protein containing the Listeria virulence protein InlC (Listeria monocytogenes) (UniProt P71451)
Experiment: pull-down

Substance: SH36 domain of Tuba with its GST tag removed (from UniProt Q6XZF7) (domain or fragment)
- binding: binds

These are yes or no findings as the source states them, for the method shown. Binding can be weak; no strength is given.
